At least one compound was matched to its structure with a doubt left.
Test: Cleavage study of silyl conjugates at pH 7.4 (THF:0.01 M PBS buffer, 37° C.)
Type: physicochemical
Conditions: THF:0.01 M PBS buffer (pH 7.4), over 20 hours
Protocol: To study the release properties of the silyl conjugates, the conjugates were subject to hydrolysis conditions at both pH 7.4 and pH 4.5 to simulate blood and endosomes/lysosome environments, respectively.
Example 12 and Example 15 were dissolved in THF:0.01 M PBS buffer (pH 7.4) and heated to 37° C. with stirring for over 20 hours. […] Additionally, Example 11 was trapped with methyl-3-mercaptopropionate to approximate a bioconjugate.

CC[C@]1(O)CC2CN(CCc3c([nH]c4ccccc34)[C@@](C(=O)OC)(c3cc4c(cc3OC)N(C)[C@H]3[C@@](O)(C(=O)OC)[C@H](O[Si](C)(C)CCCCC(=O)OCc5ccccc5)[C@]5(CC)C=CCN6CC[C@]43[C@@H]65)C2)C1 (stereo partly drawn) [Example 15, (3aR,3a^1R,4R,5S,10bR)-methyl 4-(((5-(benzyloxy)-5-oxopentyl)dimethylsilyl)oxy)-3a-ethyl-9-((5S,9S)-5-ethyl-5-hydroxy-9-(methoxycarbonyl)-2,4,5,6,7,8,9,10-octahydro-1H-3,7-methano[1]azacycloundecino[5,4-b]indol-9-yl)-5-hydroxy-8-methoxy-6-methyl-3a,3a^1,4,5,5a,6,11,12-octahydro-1H-indolizino[8,1-cd]carbazole-5-carboxylate]
hydrolysis (e.g. parent vinca) at pH 7.4: No evidence of hydrolysis
